Reference: PMC12536042
Results are given in words; binding and its absence hold for the method and conditions named. Binding seen in cells or lysates may run through a third protein. A yes stands for co-enrichment or nearness to the bait. Other partners may have been found.

By UniProt entry, the sequences of proteins in these tests, tags left out.
UniProt Q8BTW9: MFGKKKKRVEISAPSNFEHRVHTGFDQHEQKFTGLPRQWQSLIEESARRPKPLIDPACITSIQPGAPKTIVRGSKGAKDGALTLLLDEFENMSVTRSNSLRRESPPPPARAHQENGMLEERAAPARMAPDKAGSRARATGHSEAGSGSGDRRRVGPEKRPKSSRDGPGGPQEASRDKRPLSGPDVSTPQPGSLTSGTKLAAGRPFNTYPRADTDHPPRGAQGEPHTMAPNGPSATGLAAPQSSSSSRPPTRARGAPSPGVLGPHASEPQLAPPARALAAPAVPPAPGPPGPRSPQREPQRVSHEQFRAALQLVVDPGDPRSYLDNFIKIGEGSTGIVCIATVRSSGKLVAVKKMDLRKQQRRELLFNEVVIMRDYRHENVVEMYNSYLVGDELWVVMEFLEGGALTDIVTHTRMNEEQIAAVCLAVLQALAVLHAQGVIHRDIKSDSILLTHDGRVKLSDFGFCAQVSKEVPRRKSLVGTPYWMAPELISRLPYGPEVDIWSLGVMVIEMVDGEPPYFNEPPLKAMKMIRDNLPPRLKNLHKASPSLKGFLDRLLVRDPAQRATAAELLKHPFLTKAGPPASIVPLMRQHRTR
UniProt P11404: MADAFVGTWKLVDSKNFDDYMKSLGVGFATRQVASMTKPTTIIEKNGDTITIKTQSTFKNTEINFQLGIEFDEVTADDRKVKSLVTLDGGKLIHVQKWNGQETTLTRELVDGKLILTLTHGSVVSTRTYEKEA
UniProt Q922U2: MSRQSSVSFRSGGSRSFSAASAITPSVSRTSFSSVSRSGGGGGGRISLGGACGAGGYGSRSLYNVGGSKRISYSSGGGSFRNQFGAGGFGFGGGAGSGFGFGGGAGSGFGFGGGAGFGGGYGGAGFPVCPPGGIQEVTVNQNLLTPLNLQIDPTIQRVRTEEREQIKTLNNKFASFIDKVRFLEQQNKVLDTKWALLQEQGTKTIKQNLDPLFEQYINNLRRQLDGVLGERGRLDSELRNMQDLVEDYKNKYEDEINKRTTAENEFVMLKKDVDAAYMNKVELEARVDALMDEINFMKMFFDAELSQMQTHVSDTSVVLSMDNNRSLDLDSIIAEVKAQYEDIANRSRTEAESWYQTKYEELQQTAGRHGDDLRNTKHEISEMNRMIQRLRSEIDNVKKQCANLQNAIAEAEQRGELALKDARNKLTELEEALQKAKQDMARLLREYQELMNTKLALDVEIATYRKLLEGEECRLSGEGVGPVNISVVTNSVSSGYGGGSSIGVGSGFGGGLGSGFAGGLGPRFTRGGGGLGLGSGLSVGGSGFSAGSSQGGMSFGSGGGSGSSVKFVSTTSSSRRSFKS

Molecular target: p21-activated kinase 4 (Pak4) (mouse (endogenous in TSPCs and tendon tissue of C57BL/6 mice)) (UniProt Q8BTW9)
Test: affinity purification with mass spectrometry; antibody on magnetic beads (Pierce Direct Magnetic IP/CO-IP kit), lysate overnight at 4 °C; sham group and tendon lesions at 7 days after burn/tenotomy, n = 3; hits identified in all three BTT samples and not in the control group

Row | Substance | binding
1 | fatty acid binding protein 3 (Fabp3) (from UniProt P11404 1-133) | binds
2 | Krt5 (from UniProt Q922U2 1-580) | binds
